Assay results as given in publication PMC7997968.
No constants are given. Whether binding was seen depends on the method and setting. In cells and extracts the contact can be indirect. Some binding calls cover weakened binding; strength is not graded here. For part of these data: Where a sequence is shown, tags or fusion partners need not be part of it. Each block holds one molecule with its values, some of them ahead of it.

By UniProt entry, the sequences of proteins in these tests, tags left out.
UniProt P03372: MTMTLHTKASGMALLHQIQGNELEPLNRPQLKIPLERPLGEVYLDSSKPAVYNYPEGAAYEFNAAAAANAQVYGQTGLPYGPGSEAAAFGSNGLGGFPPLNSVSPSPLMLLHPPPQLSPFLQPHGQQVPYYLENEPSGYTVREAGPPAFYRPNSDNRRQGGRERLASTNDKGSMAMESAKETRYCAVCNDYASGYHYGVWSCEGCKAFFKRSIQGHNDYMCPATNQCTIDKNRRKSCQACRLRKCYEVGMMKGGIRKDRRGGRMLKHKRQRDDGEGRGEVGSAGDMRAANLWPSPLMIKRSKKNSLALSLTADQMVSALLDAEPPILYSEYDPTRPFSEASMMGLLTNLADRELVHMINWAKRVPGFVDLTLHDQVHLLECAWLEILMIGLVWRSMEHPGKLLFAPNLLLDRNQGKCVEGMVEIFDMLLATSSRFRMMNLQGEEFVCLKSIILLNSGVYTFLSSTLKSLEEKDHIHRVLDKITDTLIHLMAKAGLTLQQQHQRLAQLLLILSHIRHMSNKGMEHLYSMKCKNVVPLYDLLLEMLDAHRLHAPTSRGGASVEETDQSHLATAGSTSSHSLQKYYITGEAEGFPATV

What was measured:
[1] = target: T1, Ubiquitin carboxyl-terminal hydrolase 15 (USP15), endogenous (human (endogenous in breast cancer cells)) (UniProt Q9Y4E8); test: co-IP; proteins extracted from breast cancer cells; immunoprecipitated with anti-ERα or anti-USP15, immunoblot for USP15 or ERα; endogenous proteins
T1 sequence: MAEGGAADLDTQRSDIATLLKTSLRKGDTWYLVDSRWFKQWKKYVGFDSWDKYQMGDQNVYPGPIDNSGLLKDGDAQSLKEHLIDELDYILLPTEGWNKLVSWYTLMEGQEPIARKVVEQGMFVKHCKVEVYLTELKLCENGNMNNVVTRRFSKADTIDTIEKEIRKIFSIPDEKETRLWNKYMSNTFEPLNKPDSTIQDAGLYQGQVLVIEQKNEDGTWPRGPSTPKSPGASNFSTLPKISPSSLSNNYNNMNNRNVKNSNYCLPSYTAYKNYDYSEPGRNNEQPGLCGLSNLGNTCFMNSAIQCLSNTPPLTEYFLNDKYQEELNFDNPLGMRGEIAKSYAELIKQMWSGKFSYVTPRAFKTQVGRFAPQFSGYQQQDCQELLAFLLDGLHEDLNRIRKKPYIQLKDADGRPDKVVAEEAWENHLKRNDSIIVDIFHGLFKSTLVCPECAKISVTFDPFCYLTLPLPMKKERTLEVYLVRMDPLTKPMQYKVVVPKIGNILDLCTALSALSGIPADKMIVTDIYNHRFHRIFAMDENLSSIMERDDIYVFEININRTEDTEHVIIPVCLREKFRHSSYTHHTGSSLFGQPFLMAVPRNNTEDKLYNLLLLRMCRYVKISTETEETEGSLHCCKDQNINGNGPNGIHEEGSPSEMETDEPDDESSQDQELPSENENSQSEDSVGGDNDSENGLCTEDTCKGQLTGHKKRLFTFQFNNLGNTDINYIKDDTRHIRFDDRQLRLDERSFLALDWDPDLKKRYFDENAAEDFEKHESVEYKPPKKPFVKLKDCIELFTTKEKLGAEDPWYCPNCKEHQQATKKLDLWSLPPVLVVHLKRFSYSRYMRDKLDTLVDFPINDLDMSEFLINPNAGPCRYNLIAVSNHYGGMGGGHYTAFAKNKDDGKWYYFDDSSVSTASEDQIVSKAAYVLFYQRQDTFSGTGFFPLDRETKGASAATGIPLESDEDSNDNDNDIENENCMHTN

[2] = target: FLAG-tagged ERα (UniProt P03372); test: co-IP; HEK293T cells transfected with FLAG-tagged ERα and MYC-tagged USP15; co-IP and western blot for MYC and FLAG
[3] = target: estrogen receptor α (ERα), endogenous (human (endogenous in breast cancer cells)) (UniProt P03372); test: co-IP; proteins extracted from breast cancer cells; immunoprecipitated with anti-ERα or anti-USP15, immunoblot for USP15 or ERα; endogenous proteins

- binding [1]: binds
Molecule: estrogen receptor α (ERα), endogenous (from UniProt P03372 1-595)

- binding [2]: binds
B1: MYC-tagged USP15 (enzyme, UniProt Q9Y4E8-2 1-952)
chain: MAEGGAADLDTQRSDIATLLKTSLRKGDTWYLVDSRWFKQWKKYVGFDSWDKYQMGDQNVYPGPIDNSGLLKDGDAQSLKEHLIDELDYILLPTEGWNKLVSWYTLMEGQEPIARKVVEQGMFVKHCKVEVYLTELKLCENGNMNNVVTRRFSKADTIDTIEKEIRKIFSIPDEKETRLWNKYMSNTFEPLNKPDSTIQDAGLYQGQVLVIEQKNEDGTWPRGPSTPNVKNSNYCLPSYTAYKNYDYSEPGRNNEQPGLCGLSNLGNTCFMNSAIQCLSNTPPLTEYFLNDKYQEELNFDNPLGMRGEIAKSYAELIKQMWSGKFSYVTPRAFKTQVGRFAPQFSGYQQQDCQELLAFLLDGLHEDLNRIRKKPYIQLKDADGRPDKVVAEEAWENHLKRNDSIIVDIFHGLFKSTLVCPECAKISVTFDPFCYLTLPLPMKKERTLEVYLVRMDPLTKPMQYKVVVPKIGNILDLCTALSALSGIPADKMIVTDIYNHRFHRIFAMDENLSSIMERDDIYVFEININRTEDTEHVIIPVCLREKFRHSSYTHHTGSSLFGQPFLMAVPRNNTEDKLYNLLLLRMCRYVKISTETEETEGSLHCCKDQNINGNGPNGIHEEGSPSEMETDEPDDESSQDQELPSENENSQSEDSVGGDNDSENGLCTEDTCKGQLTGHKKRLFTFQFNNLGNTDINYIKDDTRHIRFDDRQLRLDERSFLALDWDPDLKKRYFDENAAEDFEKHESVEYKPPKKPFVKLKDCIELFTTKEKLGAEDPWYCPNCKEHQQATKKLDLWSLPPVLVVHLKRFSYSRYMRDKLDTLVDFPINDLDMSEFLINPNAGPCRYNLIAVSNHYGGMGGGHYTAFAKNKDDGKWYYFDDSSVSTASEDQIVSKAAYVLFYQRQDTFSGTGFFPLDRETKGASAATGIPLESDEDSNDNDNDIENENCMHTN

- binding [3]: binds
B2: Ubiquitin carboxyl-terminal hydrolase 15 (USP15), endogenous (enzyme, UniProt Q9Y4E8 1-981)
chain: MAEGGAADLDTQRSDIATLLKTSLRKGDTWYLVDSRWFKQWKKYVGFDSWDKYQMGDQNVYPGPIDNSGLLKDGDAQSLKEHLIDELDYILLPTEGWNKLVSWYTLMEGQEPIARKVVEQGMFVKHCKVEVYLTELKLCENGNMNNVVTRRFSKADTIDTIEKEIRKIFSIPDEKETRLWNKYMSNTFEPLNKPDSTIQDAGLYQGQVLVIEQKNEDGTWPRGPSTPKSPGASNFSTLPKISPSSLSNNYNNMNNRNVKNSNYCLPSYTAYKNYDYSEPGRNNEQPGLCGLSNLGNTCFMNSAIQCLSNTPPLTEYFLNDKYQEELNFDNPLGMRGEIAKSYAELIKQMWSGKFSYVTPRAFKTQVGRFAPQFSGYQQQDCQELLAFLLDGLHEDLNRIRKKPYIQLKDADGRPDKVVAEEAWENHLKRNDSIIVDIFHGLFKSTLVCPECAKISVTFDPFCYLTLPLPMKKERTLEVYLVRMDPLTKPMQYKVVVPKIGNILDLCTALSALSGIPADKMIVTDIYNHRFHRIFAMDENLSSIMERDDIYVFEININRTEDTEHVIIPVCLREKFRHSSYTHHTGSSLFGQPFLMAVPRNNTEDKLYNLLLLRMCRYVKISTETEETEGSLHCCKDQNINGNGPNGIHEEGSPSEMETDEPDDESSQDQELPSENENSQSEDSVGGDNDSENGLCTEDTCKGQLTGHKKRLFTFQFNNLGNTDINYIKDDTRHIRFDDRQLRLDERSFLALDWDPDLKKRYFDENAAEDFEKHESVEYKPPKKPFVKLKDCIELFTTKEKLGAEDPWYCPNCKEHQQATKKLDLWSLPPVLVVHLKRFSYSRYMRDKLDTLVDFPINDLDMSEFLINPNAGPCRYNLIAVSNHYGGMGGGHYTAFAKNKDDGKWYYFDDSSVSTASEDQIVSKAAYVLFYQRQDTFSGTGFFPLDRETKGASAATGIPLESDEDSNDNDNDIENENCMHTN
